For at least one compound, name, drawing or mass did not settle the structure.
System: 293 cells
Test: Apoptosis by Cell Death Detection ELISA in 293 cells
Type: cell-based, human
Details: antioxidant 1 hr, then AA 200 μM, 44 hr
Description: FIG. 3: Arachidonic acid induces apoptosis via activation of caspase 3. (A) Determination of cell survival. AA was added to 293 cells at the indicated concentrations and the surviving fraction of cells was determined after 44 hr. The values shown are relative to the viability of cells that were not exposed to AA. (B) Increased apoptosis in cells exposed to AA. Cells were treated with AA (300 μM) or palmitic acid (300 μM) under the same conditions as in A, and then apoptosis was detected with an ELISA. The mean values from triplicate determinations are shown. […] The 293 cells were treated with AA (300 μM; +AA) or vehicle alone (−AA) for 44 hr. The nuclei were stained with DAPI, and DNA strand breaks in individual cells were detected with a fluorescent TUNEL assay. The upper panels are the same field of cells (−AA) photographed under UV (left panels) and FITC filters (right panels). The lower panels illustrate apoptotic cells (+AA). The magnification is 80×. […] The 293 cells were preincubated with caspase inhibitors (including DMQD, a caspase 3 inhibitor, and YVAD, a caspase 1 and 4 inhibitor (Peptide Institute)) for 1 hr at the indicated concentrations, AA (300 μM) was added, and apoptosis was determined 44 hr later. […]
Cell Death Detection ELISA. […] AA was applied and apoptotic death was determined after 44 hr with the Cell Death Detection ELISA (Boehringer Mannheim).

## CC(=O)N(O)CCCCCNC(=O)CCC(=O)N(O)CCCCCNC(=O)CCC(=O)N(O)CCCCCN [deferoxamine]
  effect of antioxidant pretreatment on AA-induced apoptosis: apoptosis decreased significantly
